Record: PubChem BioAssay AID1259308 (NCATS, 2017)
Assay: 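Genes whose loss raises luciferase production in HEK293 cells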 (primary screen). Cell system: human HEK293 embryonic kidney cells stably expressing firefly luciferase (HEK-CMV-Luc2-Hygro). Reagent: single siRNA against human genes, 0.8 pmol siRNA per well. Duration: 72 h. Read-out: 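Luciferase light (ONE-Glo) measured on one replicate plate set and viability (CellTiter-Glo) on the other, scaled to a negative control siRNA, with robust z-scores and luciferase per cell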. Scale: total luciferase, z-score and total luciferase, % of control: higher = more reporter protein produced; luciferase per cell, z-score: higher = more reporter output per viable cell; viable cells, % of control: higher = more viable cells. Call rule: 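Active when the median/MAD z-score for overall luciferase is greater than 3; a gene was taken forward for validation with new siRNAs if at least two of its three siRNAs passed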. Meaning of the calls: active = raised luciferase; inactive = no rise.
This is an unselected part of about 59,000 deposited reagents. Of all reagents, about 1,510 (2.6%) got an active call. 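Calls use total luciferase alone and ignore viability, so some active siRNAs may act by altering cell number.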 Entries without a mark were called inactive. Reagents against one gene are numbered here.

gene knocked down	reagent no.	total luciferase, z-score	total luciferase, % of control	luciferase per cell, z-score	viable cells, % of control
EPHB2 (GeneID 2048)	1	0.19	85.7	1.59	63
EPHB2 (GeneID 2048)	2	0.0628	83.1	0.0596	91.5
EPHB2 (GeneID 2048)	3	-2.73	27.6	-1.67	48
FIS1 (GeneID 51024)	1	-0.707	67.8	-0.508	86.6
FIS1 (GeneID 51024)	2	-0.404	73.9	-0.817	102
FIS1 (GeneID 51024)	3	0.642	94.7	0.595	90.4
TRAPPC13 (GeneID 80006)	1	-1.02	61.5	-1.03	90.1
TRAPPC13 (GeneID 80006)	2	1.19	106	0.441	105
TRAPPC13 (GeneID 80006)	3	1.6	114	0.483	112
CPOX (GeneID 1371)	1	0.31	88.1	-0.168	103
CPOX (GeneID 1371)	2	-0.356	74.8	-0.745	102
CPOX (GeneID 1371)	3	-0.509	71.8	-1.25	111
ELMO3 (GeneID 79767)	1	0.423	90.3	-0.315	110
ELMO3 (GeneID 79767)	2	2.11	124	1.36	96.7
ELMO3 (GeneID 79767)	3	0.0889	83.7	-0.352	103
PIMREG (GeneID 54478)	1	0.284	87.5	-0.566	114
PIMREG (GeneID 54478)	2	0.722	96.2	1.04	81.8
PIMREG (GeneID 54478)	3	0.153	84.9	-0.41	106
SNCA (GeneID 6622)	1	-0.659	68.8	-1.29	108
SNCA (GeneID 6622)	2	-0.522	71.5	0.0372	79.1
SNCA (GeneID 6622)	3	0.562	93.1	0.14	100
DYRK2 (GeneID 8445)	1	1.38	109	1.23	88.3
DYRK2 (GeneID 8445)	2	0.492	91.7	0.468	90.6
DYRK2 (GeneID 8445)	3	-1.43	53.5	-0.621	70.4
HEPHL1 (GeneID 341208)	1	-1.2	58.1	-1.41	94.2
HEPHL1 (GeneID 341208)	2	0.718	96.2	0.199	102
HEPHL1 (GeneID 341208)	3	-0.0794	80.3	-0.459	101

8 consecutive records already listed, for reference:
gene knocked down	reagent no.	total luciferase, z-score	total luciferase, % of control	luciferase per cell, z-score	viable cells, % of control
EPHB2 (GeneID 2048)	2	0.0628	83.1	0.0596	91.5
EPHB2 (GeneID 2048)	3	-2.73	27.6	-1.67	48
FIS1 (GeneID 51024)	1	-0.707	67.8	-0.508	86.6
FIS1 (GeneID 51024)	2	-0.404	73.9	-0.817	102
FIS1 (GeneID 51024)	3	0.642	94.7	0.595	90.4
TRAPPC13 (GeneID 80006)	1	-1.02	61.5	-1.03	90.1
TRAPPC13 (GeneID 80006)	2	1.19	106	0.441	105
TRAPPC13 (GeneID 80006)	3	1.6	114	0.483	112

Continued.
gene knocked down	reagent no.	total luciferase, z-score	total luciferase, % of control	luciferase per cell, z-score	viable cells, % of control
TNS4 (GeneID 84951)	1	-0.0327	81.2	-0.273	97.6
TNS4 (GeneID 84951)	2	1.29	108	2.28	66
TNS4 (GeneID 84951)	3	1.05	103	1.63	74.8
PGAP6 (GeneID 58986)	1	-1.15	59	-0.843	82.4
PGAP6 (GeneID 58986)	2	0.265	87.2	0.21	92.2
PGAP6 (GeneID 58986)	3	-0.483	72.3	0.0403	79.9
LRR1 (GeneID 122769)	1	-0.122	79.5	-0.498	101
LRR1 (GeneID 122769)	2	-0.424	73.5	-0.56	95.1
LRR1 (GeneID 122769)	3	-0.422	73.5	0.0728	80.6
GP6 (GeneID 51206)	1	-0.94	63.2	-1.4	102
GP6 (GeneID 51206)	2	0.172	85.3	-0.0621	96.9
GP6 (GeneID 51206)	3	0.273	87.3	0.289	90.4
HTR6 (GeneID 3362)	1	0.68	95.4	1.77	66.9
HTR6 (GeneID 3362)	2	1.57	113	2.69	62.3
HTR6 (GeneID 3362)	3	0.267	87.2	-0.971	126
ACD (GeneID 65057)	1	-1.57	50.6	-0.167	59.1
ACD (GeneID 65057)	2	1.97	121	1.69	86.7
ACD (GeneID 65057)	3	-1.84	45.2	-1.82	81.5
KNCN (GeneID 148930)	1	-0.717	67.6	-0.226	80.2
KNCN (GeneID 148930)	2	-1.61	49.8	-1.15	75.2
KNCN (GeneID 148930)	3	0.617	94.2	0.77	85.9
ZNF236 (GeneID 7776)	1	-0.812	65.7	-0.824	91.2
ZNF236 (GeneID 7776)	2	0.3	87.9	0.363	89.2
ZNF236 (GeneID 7776)	3	-0.547	71	-0.781	97.4
NRG4 (GeneID 145957)	1	0.151	84.9	-0.287	102
NRG4 (GeneID 145957)	2	-1.87	44.7	-0.58	58.2
NRG4 (GeneID 145957)	3	-0.15	78.9	-0.685	106
DDX24 (GeneID 57062)	1	-3.24	17.3	-1.48	28.6
DDX24 (GeneID 57062)	2	-2.65	29.1	-2.36	60.6
DDX24 (GeneID 57062)	3	-1.67	48.7	-0.639	64.3
GPRACR (GeneID 401554)	1	0.906	99.9	1.88	68
GPRACR (GeneID 401554)	2	-1.13	59.5	-0.737	80.7
GPRACR (GeneID 401554)	3	0.0622	83.1	-0.62	109
MINDY1 (GeneID 55793)	1	0.0124	82.1	-0.0723	93.5
MINDY1 (GeneID 55793)	2	3.51 (active)	152	2.12	97.1
MINDY1 (GeneID 55793)	3	0.358	89	0.0508	98.1
SIGLEC12 (GeneID 89858)	1	-0.276	76.4	-0.307	92.6
SIGLEC12 (GeneID 89858)	2	-1.32	55.5	-0.861	77.8
SIGLEC12 (GeneID 89858)	3	-0.783	66.3	-0.8	91.5
CITED1 (GeneID 4435)	1	0.141	84.7	0.331	86.7
CITED1 (GeneID 4435)	2	-0.571	70.5	-1.07	104
CITED1 (GeneID 4435)	3	2.16	125	1.8	87
LINC00951 (GeneID 401260)	1	0.797	97.7	0.625	92.6
LINC00951 (GeneID 401260)	2	2.22	126	2.06	82
LINC00951 (GeneID 401260)	3	2.84	138	1.95	92.6
EVL (GeneID 51466)	1	2.76	137	2.28	83.8
EVL (GeneID 51466)	2	0.279	87.4	0.836	78.4
EVL (GeneID 51466)	3	0.757	96.9	1.17	79.6
